The term Papp A→B denotes how fast a substance crosses the layer from the apical side. By Papp B→A is commonly meant the apparent permeability from the basolateral to the apical side of a cell layer.

These results are taken from paper PMC6524416, “Nanofibrous Scaffolds Support a 3D in vitro Permeability Model of the Human Intestinal Epithelium” (Frontiers in Pharmacology, 2019).

Molecules are shown by their SMILES. Read-outs that look alike come from different tables or passages of the source.

The nature of data set [1]: Bidirectional permeability across Caco-2 cultures on collagen-coated PET nanofibrous scaffolds. In kind it is in vitro ADME. The settings on record: human, Caco-2 on nanofiber scaffolds, pH 7.4, mean (±SD). As for the experimental part:
Polyethylene terephthalate flakes (food grade; were procured from recycled plastic bottles and processed in-house) were dissolved in a 1:1 solution of dichloromethane and trifluoroacetic acid (overnight with stirring) and the polymer solution transferred into a syringe fitted with a blunt needle (18 gauge spinneret) attached to a syringe pump (Harvard Apparatus, United Kingdom). Electrospinning was conducted at a flow rate of 0.5 mL/hr at 14 kV voltage (Glassman High Voltage Inc., Series EL, Glassman Europe Ltd., United Kingdom; Supplementary Figure S1). The fibers were collected on a grounded static plate or rotating collector (a tip-collector distance of 15 cm). The scaffolds were removed with the aid of 70% (v/v) IMS and allowed to air dry at room temperature (RT).
The nanofibrous scaffolds were surface coated with type I bovine collagen (Sigma-Aldrich). For type I bovine collagen coating, 150 μL of collagen solution (stock and working concentrations 3.1 mg/mL and 31 μg/mL, respectively) was gently pipetted ensuring adequate coverage of the entire scaffold. […]
Caco-2 (used within 20 passages throughout the study) was obtained from the Clinical Pathology Laboratory, Queens Medical Centre, Nottingham and are available from ATCC. […] The fluorescence of the samples was determined using a plate reader (Tecan Infinite 200, Tecan, United Kingdom) at 530/590 nm (excitation/emission wavelengths). […]
(In general: Caco-2 cells form a polarised layer with tight junctions and transporters.)

The subject of data set [2] is human jejunal. The note with it: ref Sjöberg et al. (2013), Rozehnal et al. (2012), cited from earlier work.
Data set [3] in a line: Bidirectional permeability across Caco-2 monolayers on Transwell inserts. The format is in vitro ADME. The note with it: human, Caco-2 on Transwell, pH 7.4, mean (±SD). The protocol:
Caco-2 (used within 20 passages throughout the study) was obtained from the Clinical Pathology Laboratory, Queens Medical Centre, Nottingham and are available from ATCC. They were cultured in DMEM (Gibco) supplemented with 10% (v/v) foetal calf serum (FCS), 2 mM L-Glutamine solution, 1% (v/v) antibiotic/antimycotic solution (Gibco; final concentrations of […] streptomycin sulfate and 25 μgmL^-1 amphotericin B) at 37°C, 5% CO2 in 95% relative humidity (RH). Cells were cultured to around 80% confluence before harvesting cells by passaging with Trypsin/EDTA (Sigma Aldrich). Cell culture media was replaced every 2 days. For the initial evaluation of the scaffold compatibility, Collagen type I and untreated nanofibrous scaffolds were mounted in 24-well Cell Crown^TM inserts (Scaffdex). […] The fluorescence of the samples was determined using a plate reader (Tecan Infinite 200, Tecan, United Kingdom) at 530/590 nm (excitation/emission wavelengths). […]
Transport studies were conducted using standard, widely accepted protocols as previously described ([Volpe, 2008]). […] TEER was measured before and after each experiment to ensure barrier integrity during the experiments and as a control measure of experimental validity. […] Apparent permeability coefficients (Papp) were calculated according to Eq. 2: […]

Data set [4] is described as follows: Bidirectional permeability across ex vivo porcine intestinal segments. The format is in vitro ADME. The note with it: pig. As for the experimental part:
In accordance with the NC3R framework on the reduction and refinement of animals in research; samples were only obtained from healthy adult pig cadavers being used for the purposes of other research projects. The work was conducted according to United Kingdom Home Office guidelines (Animal Scientific Procedures Act […]) and following local AWERB approval (ref 000057). Regional sections from the duodenum (first 25 cm from the stomach), jejunum (150 cm from the stomach) and ileum (first 50 cm back from the ileocecal valve) were resected from pig cadavers (Supplementary Figure S2). Using tweezers the serosa and muscularis propria (muscle layers) were carefully peeled away leaving the mucosa. Sections were washed in PBS, cut to fit the Transwell® inserts (Corning Life Sciences) and transferred in 6-well plates. All tissue was kept on the ice and used within a 24 h time period, post-collection.
Transport studies were conducted using standard, widely accepted protocols as previously described ([Volpe, 2008]). Transport markers were prepared in transport buffer (HBSS, 25 mM HEPES, pH 7.4). Dimethyl sulfoxide (DMSO) was used to aid solubilisation of poorly soluble drugs at a maximum final concentration of 0.1% (v/v) used in all transport experiments. TEER was measured before and after each experiment to ensure barrier integrity during the experiments and as a control measure of experimental validity. Inserts were transferred to fresh plates containing transport buffer (apical/basolateral volumes were 0.4/1.2 mL and 0.5/6 mL for Transwell® and Snapwell® inserts, respectively). Donor solutions were added to the relevant compartments and the inserts were then incubated at 37°C with shaking at 150 rpm and sampled at intervals of 30 min or 1 h for 1–2 h. Apparent permeability coefficients (Papp) were calculated according to Eq. 2:
Where dQ/dt is the flux of the compound being investigated (μM s-1), A is the exposed surface area of the insert/scaffold (cm^2) and C0 is the concentration in the apical compartment at t = 0 (μM).
Compound recovery following permeability assessment were calculated according the following Eq. 3:
(3) Recovery (%)=[CR(final)×VR(final))×100/(CD(initial)×VD(initial)]
Where CD and CR are the donor and receiver compartment concentrations, VD and VR are the donor and receiver compartment volumes at t = 0 (initial) or the end of the experiment (final).
Atenolol and propranolol (Sigma Aldrich) were dissolved in a minimal volume of DMSO before dilution into transport buffer. […] All HPLC was performed using a Kinetix XB-C18 5 μm, 100 Å pore size, 150 mm × 4.56 mm column (with a guard column) on an Agilent 1100 HPLC system. […] Samples were analyzed using gradient runs with Milli-Q dH2O, 0.5% TFA (eluent A) and acetonitrile, 0.5% TFA (eluent B).

Consider `CC(C)NCC(O)COc1ccc(CC(N)=O)cc1` (centres unmarked) [ATN, Atenolol], for which the Papp A→B in data set [1] (apical to basolateral) was 1.48 ×10⁻⁶ cm/s; in data set [3] (apical to basolateral) it was 0.48 ×10⁻⁶ cm/s; in data set [4] (pH 7.4, all porcine segments (duodenum, jejunum, ileum), A to B, read-out: Papp (A to B), range over porcine segments), 3.71 to 5.58 ×10⁻⁶ cm/s. For the same compound, the Papp B→A was 1.44 ×10⁻⁶ cm/s in data set [1] (basolateral to apical); 0.67 ×10⁻⁶ cm/s in data set [3] (basolateral to apical); 3.22 to 9.44 ×10⁻⁶ cm/s in data set [4] (pH 7.4, all porcine segments (duodenum, jejunum, ileum), B to A, read-out: Papp (B to A), range over porcine segments). The “human jejunal Papp” value in data set [2] (first listed value for ATN) is listed as 4.11 ± 1.32 × 10^-6; in data set [2] (second listed value for ATN), 2.82 ± 0.65 × 10^-6. For the same compound, the apical-to-basolateral permeability (Papp A→B) at 1 mM is 5.52 ± 2.97 ×10⁻⁶ cm/s in data set [4] (pH 7.4, porcine ileal section, A to B) and 5.08 ± 4.12 ×10⁻⁶ cm/s in data set [4] (pH 7.4, porcine jejunal section, A to B). This compound gave a Papp B→A at 1 mM in data set [4] (pH 7.4, porcine duodenal section, B to A) of 9.44 ± 8.56 ×10⁻⁶ cm/s.
